Experimental data as given in article PMC6706451, “Crystal structure and substrate-induced activation of ADAMTS13” (Nature Communications, 2019).
Results are given in words; binding and its absence hold for the method and conditions named. Some entries that bind do so weakly or less than the wild type.

The chains behind the UniProt entries cited, without tags or fusion partners. Where a name states a change or a piece, a line headed by the entry shows the natural chain unless it says otherwise. A line that says so, or that is headed by a name, gives the form on record, which may keep a tag or linker. Residues count along the entry.
VWF96-MP (P04275, form named): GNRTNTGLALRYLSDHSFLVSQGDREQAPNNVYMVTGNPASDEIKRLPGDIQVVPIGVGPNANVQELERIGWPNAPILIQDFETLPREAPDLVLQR
UniProt Q76LX8, residues 75-1427: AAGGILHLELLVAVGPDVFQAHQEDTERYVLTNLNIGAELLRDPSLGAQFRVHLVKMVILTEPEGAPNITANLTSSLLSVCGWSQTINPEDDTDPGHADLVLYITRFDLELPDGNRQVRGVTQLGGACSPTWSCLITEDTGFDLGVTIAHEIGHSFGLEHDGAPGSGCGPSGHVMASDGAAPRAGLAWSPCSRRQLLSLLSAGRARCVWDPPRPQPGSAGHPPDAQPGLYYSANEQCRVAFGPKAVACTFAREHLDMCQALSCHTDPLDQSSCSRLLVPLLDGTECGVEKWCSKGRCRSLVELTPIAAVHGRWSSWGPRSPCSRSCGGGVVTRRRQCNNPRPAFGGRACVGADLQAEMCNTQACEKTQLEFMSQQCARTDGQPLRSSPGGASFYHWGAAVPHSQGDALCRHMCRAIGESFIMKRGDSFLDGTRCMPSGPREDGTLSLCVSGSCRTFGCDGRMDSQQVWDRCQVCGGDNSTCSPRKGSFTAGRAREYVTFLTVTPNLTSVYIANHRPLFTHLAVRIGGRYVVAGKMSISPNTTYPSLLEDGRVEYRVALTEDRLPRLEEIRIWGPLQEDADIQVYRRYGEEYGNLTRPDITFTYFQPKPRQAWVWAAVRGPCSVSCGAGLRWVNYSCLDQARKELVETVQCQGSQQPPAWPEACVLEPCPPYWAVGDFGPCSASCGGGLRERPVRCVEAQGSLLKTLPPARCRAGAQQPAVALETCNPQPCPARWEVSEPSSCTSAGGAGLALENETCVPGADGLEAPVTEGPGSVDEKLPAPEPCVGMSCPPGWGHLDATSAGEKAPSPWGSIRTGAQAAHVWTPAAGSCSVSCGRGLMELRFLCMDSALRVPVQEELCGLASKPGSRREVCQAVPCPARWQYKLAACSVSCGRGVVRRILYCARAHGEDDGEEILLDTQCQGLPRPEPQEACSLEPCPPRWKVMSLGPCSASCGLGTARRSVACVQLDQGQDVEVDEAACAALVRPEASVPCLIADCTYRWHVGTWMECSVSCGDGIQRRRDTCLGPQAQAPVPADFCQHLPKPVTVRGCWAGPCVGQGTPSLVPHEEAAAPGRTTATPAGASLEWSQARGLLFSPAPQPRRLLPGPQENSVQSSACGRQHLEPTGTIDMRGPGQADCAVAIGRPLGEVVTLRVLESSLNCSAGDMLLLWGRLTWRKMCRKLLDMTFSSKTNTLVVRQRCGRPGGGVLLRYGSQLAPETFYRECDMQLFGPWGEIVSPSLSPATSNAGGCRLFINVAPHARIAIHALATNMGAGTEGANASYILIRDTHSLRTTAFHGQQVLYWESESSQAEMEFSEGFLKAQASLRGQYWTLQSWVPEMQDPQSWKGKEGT

Target: VWF96-MP (human) (UniProt P04275)
Assay: ELISA; plate binding: 100 nM VWF96 or variant adsorbed on 96-well plates (50 mM sodium bicarbonate pH 9.6, overnight, 4 °C); 0-600 nM ADAMTS13 in PBS/1% BSA/80 mM EDTA, room temperature, 1.5 h (legend: 1 h); detected with biotinylated anti-ADAMTS13 TSP2-4 polyclonal antibody; one-site fit; apparent KD; only the target purified

- binding: binds
Substance: ADAMTS13 (from UniProt Q76LX8 75-1427) (enzyme)
